Results from patent US20150111954, “LIN28/LET-7 CRYSTAL STRUCTURES, PURIFICATION PROTOCOLS, AND MOLECULAR PROBES SUITABLE FOR SCREENING ASSAYS AND THERAPEUTICS” (PRESIDENT AND FELLOWS OF HARVARD UNIVERSITY, published 2015).
For part of these data: The comparison behind a weaker result is the experiment's own reference, which may not be listed here. For part of these data: Protein sequences can lack the tags named with them. For part of these data: For at least one entry, the source does not settle the construct or the ends of the probe. For part of these data: No signal at the amounts used counts as a negative.

Tests used:
Assay in all cases: EMSA
[1] = target: T1, Lin28a isolated CSD (Mus musculus) (UniProt Q8K3Y3); details: high-affinity binding abolished without CCHCx2; purified recombinant protein; protein details: His6 removed by TEV; label: 5'-32P
T1 sequence (looked up): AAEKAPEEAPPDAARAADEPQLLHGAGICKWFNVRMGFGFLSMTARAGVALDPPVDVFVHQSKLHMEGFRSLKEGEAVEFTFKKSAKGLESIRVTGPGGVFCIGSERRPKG

[2] = target: T2, Lin28a isolated CCHCx2 (Mus musculus) (UniProt Q8K3Y3); details: high-affinity binding abolished without CSD; purified recombinant protein; protein details: His6 removed by TEV; label: 5'-32P
T2 sequence (looked up): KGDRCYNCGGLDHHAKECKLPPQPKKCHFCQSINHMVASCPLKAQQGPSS

[3] = target: Lin28a (16-184) with linker deletion longer than 9 residues internal linker deletion of more than 9 residues (Mus musculus) (UniProt Q8K3Y3); details: deletion beyond 9 linker residues prevents complex formation; purified recombinant protein; protein details: His6 removed by TEV; label: 5'-32P

UUAGGGCAGAGAUUUUGCCCACAAGGAGUU [preE-let-7d]
binding result [1]: binds more weakly
binding result [2]: binds more weakly
binding result [3]: no binding
